Measured values published in PubChem BioAssay AID1347426 (Functional Genomics Laboratory (NCATS/FGL), 2020).
Hit rate of the full screen: of about 31,000 sequences, about 1,400 (4.5%) were called active.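 Rule for the calls: active = median seed-adjusted z-score above 1 or below -1; inactive = the rest.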 This is one part of the list.

Test: Novel Modifiers of Survival Motor Neuron (SMN) Protein: Gene Identification via Genome-wide siRNA Screen;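 note: luminescence tracks full-length SMN protein made from the SMN2 reporter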
Details: HEK293T SMN2-luciferase reporter, siRNA knockdown, 72 h; actives lie on both sides
Method in brief: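 HEK293T cells stably expressing an SMN2 splicing/cDNA-luciferase reporter were reverse-transfected with a druggable-genome siRNA library and read by luminescence at 72 hours; hits defined by MAD score above 1.0 or below -1.0.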

Row | Sequence | median seed-adjusted z-score
1 | GGUGAAGGUAGAUCAAAGATT against EIF2AK2 | inactive: 0.419
2 | CGAACGUGCUUUUUCUCAATT against SULT4A1 | inactive: -0.0628
3 | CGAGACGUAUUAUAUCUUUTT against COL4A3BP | inactive: 0.0391
4 | CCGAUUCGGUCACCAAGUATT against MYO1F | inactive: 0.103
5 | GGUUUUAGACAAUUACUUATT against CLIC1 | inactive: 0.288
6 | AGACCUUCGUGGAAAAAUATT against CDC37 | inactive: 0
7 | GCAUGUGAGCGUUUCCCUATT against ITGB1BP3 | inactive: 0.0514
8 | UGGGCCUGCUAGUCUGUCATT against TSPO | inactive: -0.206
9 | GCUAACCACUUGGAAGAUATT against PRMT7 | inactive: 0.204
10 | GAACCGUGGAGAAAGCAAATT against ALDH1B1 | inactive: 0.105
11 | GAUGGAAAGCGAAAAAGAATT against THRA | inactive: 0.13
12 | GACUCACAUUUUAUGGGAATT against SPON1 | inactive: 0.248
13 | GCUAUUUCCAGCGAAUAUATT against CNOT1 | active: 1.2
14 | GAUCAACUGAAAUCGGCAATT against DTYMK | inactive: -0.191
15 | GCGAAGACAUUUUGGAGAATT against GSTM2 | inactive: -0.464
16 | CCAGGAUUCUCGCAGGAAATT against LPCAT1 | inactive: -0.995
17 | GCCUCUUUCUGUCAGCAUUTT against SPAG4 | inactive: -0.219
18 | GCAGAAAUAAUAUCUCGGATT against ADARB1 | inactive: 0.375
19 | GAAUCAACAUAUAACGAAUTT against GPR64 | inactive: 0.527
20 | GCGUGAACCUCAUAGGGAATT against FBN1 | inactive: 0
21 | GGAUGGUAUUUGUACUAAUTT against SGPP1 | inactive: 0.0859
22 | GGAAGCUUAUGUUCAAUCATT against COG5 | inactive: -0.0609
23 | AGGCCUUUCUGGGACCUUATT against ZP4 | inactive: 0.0498
24 | CCGCUAAUGUUCAAGGACATT against UNC5B | inactive: -0.0207
25 | GCUACCUUGUCAGACACGATT against ATP7A | inactive: 0
26 | GCGUUGUCUUGGUUAACAATT against SNAPIN | inactive: -0.132
27 | GAGAAGUAUUCUUAAAACATT against ZFYVE28 | inactive: 0.0678
28 | CAUCAAAGCUUAUCAUGGATT against SPRR2B | inactive: 0.388
29 | GGAUUACAGAGGAACGGCATT against ROR2 | inactive: 0
30 | GACUUUACGUUCUCAUUUUTT against VN1R5 | inactive: 0.177

Given with tabs: part of the list above.
Row	Sequence	median seed-adjusted z-score
10	GAACCGUGGAGAAAGCAAATT against ALDH1B1	inactive: 0.105
11	GAUGGAAAGCGAAAAAGAATT against THRA	inactive: 0.13
12	GACUCACAUUUUAUGGGAATT against SPON1	inactive: 0.248
13	GCUAUUUCCAGCGAAUAUATT against CNOT1	active: 1.2
14	GAUCAACUGAAAUCGGCAATT against DTYMK	inactive: -0.191
15	GCGAAGACAUUUUGGAGAATT against GSTM2	inactive: -0.464
16	CCAGGAUUCUCGCAGGAAATT against LPCAT1	inactive: -0.995
